Values from PubChem BioAssay AID743458 (Peter MacCallum Cancer Centre, 2014).

Purpose: 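Retest earlier hits with independent siRNAs per gene for restoring vorinostat sensitivity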 (follow-up of hits)
Cells: human HCT116-VR colon cancer cells made resistant to vorinostat
Reagent: single siRNA or pool against human genes, 25 nM per single siRNA
Time to read-out: about 72 h after transfection, including 24 h of drug
Challenge: vorinostat, 2.5 µM final, for 24 h
Measured: 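Cell viability by fluorescence and apoptosis by caspase 3/7 luminescence under vorinostat, background-corrected, averaged across two plate copies and given as fold change versus mock transfection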
Reading the numbers: viability relative to mock: higher = more living cells than mock; caspase activity relative to mock: higher = more apoptosis than mock
Call rule: 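An siRNA counts as active if classed as reduced viability or as caspase activation, otherwise inactive; a hit class needed wells that remained healthy in the absence of drug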
The whole screen tested about 1,800 reagents; this is a random part of them. 732 of them (41%) were called active. 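Calls are per siRNA reagent; a gene was deemed confirmed only if most of its four siRNAs scored.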 Reagents against one gene are numbered here.

SMURF2 #1: viability relative to mock = 0.88; caspase activity relative to mock = 1.54; viability hit class = no change; caspase hit class = no change; call = inactive
SMURF2 #2: viability relative to mock = 0.9; caspase activity relative to mock = 1.69; viability hit class = no change; caspase hit class = no change; call = inactive
SMURF2 #3: viability relative to mock = 0.64; caspase activity relative to mock = 1.78; viability hit class = no change; caspase hit class = no change; call = inactive
SMURF2 #4: viability relative to mock = 0.94; caspase activity relative to mock = 0.92; viability hit class = no change; caspase hit class = no change; call = inactive
CABP5 #1: viability relative to mock = 0.74; caspase activity relative to mock = 1.94; viability hit class = no change; caspase hit class = no change; call = inactive
CABP5 #2: viability relative to mock = 0.78; caspase activity relative to mock = 1.66; viability hit class = no change; caspase hit class = no change; call = inactive
CABP5 #3: viability relative to mock = 0.53; caspase activity relative to mock = 4.02; viability hit class = reduced viability; caspase hit class = caspase activation; call = active
CABP5 #4: viability relative to mock = 0.53; caspase activity relative to mock = 3.68; viability hit class = reduced viability; caspase hit class = caspase activation; call = active
TMPRSS11F #1: viability relative to mock = 0.65; caspase activity relative to mock = 2.98; viability hit class = no change; caspase hit class = caspase activation; call = active
TMPRSS11F #2: viability relative to mock = 1.08; caspase activity relative to mock = 1.15; viability hit class = no change; caspase hit class = no change; call = inactive
TMPRSS11F #3: viability relative to mock = 0.2; caspase activity relative to mock = 3.52; viability hit class = reduced viability; caspase hit class = caspase activation; call = active
TMPRSS11F #4: viability relative to mock = 0.77; caspase activity relative to mock = 0.78; viability hit class = no change; caspase hit class = no change; call = inactive
CCDC59 #1: viability relative to mock = 0.62; caspase activity relative to mock = 2.34; viability hit class = no change; caspase hit class = no change; call = inactive
CCDC59 #2: viability relative to mock = 1.12; caspase activity relative to mock = 1.77; viability hit class = no change; caspase hit class = no change; call = inactive
CCDC59 #3: viability relative to mock = 0.61; caspase activity relative to mock = 4.21; viability hit class = no change; caspase hit class = caspase activation; call = active
CCDC59 #4: viability relative to mock = 0.71; caspase activity relative to mock = 2.65; viability hit class = no change; caspase hit class = caspase activation; call = active
RNF26 #1: viability relative to mock = 1.12; caspase activity relative to mock = 1.42; viability hit class = no change; caspase hit class = no change; call = inactive
RNF26 #2: viability relative to mock = 0.94; caspase activity relative to mock = 1.16; viability hit class = no change; caspase hit class = no change; call = inactive
RNF26 #3: viability relative to mock = 1.08; caspase activity relative to mock = 2.09; viability hit class = no change; caspase hit class = no change; call = inactive
RNF26 #4: viability relative to mock = 0.77; caspase activity relative to mock = 1.78; viability hit class = no change; caspase hit class = no change; call = inactive
IRX2-DT #1: viability relative to mock = 0.92; caspase activity relative to mock = 2.44; viability hit class = no change; caspase hit class = no change; call = inactive
IRX2-DT #2: viability relative to mock = 0.44; caspase activity relative to mock = 4.92; viability hit class = reduced viability; caspase hit class = caspase activation; call = active
IRX2-DT #3: viability relative to mock = 0.92; caspase activity relative to mock = 1.29; viability hit class = no change; caspase hit class = no change; call = inactive
IRX2-DT #4: viability relative to mock = 0.76; caspase activity relative to mock = 8.19; viability hit class = no change; caspase hit class = caspase activation; call = active
GUCY2D #1: viability relative to mock = 1.02; caspase activity relative to mock = 1.44; viability hit class = no change; caspase hit class = no change; call = inactive
GUCY2D #2: viability relative to mock = 0.8; caspase activity relative to mock = 1.52; viability hit class = no change; caspase hit class = no change; call = inactive
GUCY2D #3: viability relative to mock = 0.47; caspase activity relative to mock = 2.51; viability hit class = reduced viability; caspase hit class = no change; call = active
GUCY2D #4: viability relative to mock = 0.2; caspase activity relative to mock = 2.51; viability hit class = reduced viability; caspase hit class = no change; call = active

5 of these entries, reformatted.
target | reagent | viability relative to mock | caspase activity relative to mock | viability hit class | caspase hit class | call
TMPRSS11F | 2 | 1.08 | 1.15 | no change | no change | inactive
TMPRSS11F | 3 | 0.2 | 3.52 | reduced viability | caspase activation | active
TMPRSS11F | 4 | 0.77 | 0.78 | no change | no change | inactive
CCDC59 | 1 | 0.62 | 2.34 | no change | no change | inactive
CCDC59 | 2 | 1.12 | 1.77 | no change | no change | inactive
